From patent US10563263B2, “Genetic polymorphisms associated with statin response and cardiovascular diseases, methods of detection and uses thereof” (CELERA CORPORATION, priority 2010, dated 2020)
The source gives many values for each of these; only a part stands here.

System: revascularization, unstable angina requiring hospitalization, MI, all causes of death, or stroke
Test: PROVE IT-TIMI 22: SNP by treatment interaction (high-dose atorvastatin vs standard-dose pravastatin), logistic regression (synergy index), primary composite endpoint
Format: in vivo, human

Compound: CC(C)c1c(C(=O)Nc2ccccc2)c(-c2ccccc2)c(-c2ccc(F)cc2)n1CC[C@@H](O)C[C@@H](O)CC(=O)O [Atorvastatin, atorvastatin]
- OR (rs7762993 allele A model DOM Imputed, ATORVA vs PRAVA): 1.079
- OR (rs7771264 allele T model DOM Imputed, ATORVA vs PRAVA): 1.051
- OR (rs7795792 allele T model REC Imputed, ATORVA vs PRAVA): 0.659
- OR (rs7806481 allele G model REC Imputed, ATORVA vs PRAVA): 1.465
- OR (rs7814819 allele G model ADD Imputed, ATORVA vs PRAVA): 2.296
- OR (rs7814819 allele G model DOM Imputed, ATORVA vs PRAVA): 2.549
- OR (rs7815952 allele T model DOM Imputed, ATORVA vs PRAVA): 1.182
- OR (rs7834090 allele T model DOM Imputed, ATORVA vs PRAVA): 1.182
- OR (rs7859250 allele C model DOM Imputed, ATORVA vs PRAVA): 1.184
- OR (rs7863577 allele A model ADD Genotyped, ATORVA vs PRAVA): 1.029
- OR (rs7863577 allele A model DOM Genotyped, ATORVA vs PRAVA): 0.9475
- OR (rs7902140 allele C, ADD model, Imputed, atorvastatin vs pravastatin): 0.9423
- OR (rs7921834 allele C, DOM model, Imputed, atorvastatin vs pravastatin): 1.347
- OR (rs7939893 allele C, ADD model, Imputed, atorvastatin vs pravastatin): 0.6916
- OR (rs7939893 allele C, DOM model, Imputed, atorvastatin vs pravastatin): 0.506
- OR (rs7955901 allele C, ADD model, Imputed, atorvastatin vs pravastatin): 0.7285
- OR (rs7955901 allele C, DOM model, Imputed, atorvastatin vs pravastatin): 0.7139
- OR (rs7956274 allele T, ADD model, Imputed, atorvastatin vs pravastatin): 0.7156
- OR (rs7956274 allele T, DOM model, Imputed, atorvastatin vs pravastatin): 0.7031
- OR (rs7957932 allele G, ADD model, Imputed, atorvastatin vs pravastatin): 0.7234
- OR (rs7957932 allele G, DOM model, Imputed, atorvastatin vs pravastatin): 0.6888
- OR (rs7984294 allele A, DOM model, Imputed, atorvastatin vs pravastatin): 2.115
- OR (rs7994286 allele A, ADD model, Imputed, atorvastatin vs pravastatin): 1.764
- OR (rs7994286 allele A, DOM model, Imputed, atorvastatin vs pravastatin): 1.796
- OR (rs8038229 allele A, ADD model, Genotyped, atorvastatin vs pravastatin): 0.6909
- OR (rs8038229 allele A, DOM model, Genotyped, atorvastatin vs pravastatin): 0.666
- OR (rs8043336 allele C, REC model, Imputed, atorvastatin vs pravastatin): 0.9456
- OR (rs8054431 allele T, DOM model, Imputed, atorvastatin vs pravastatin): 1.148
- OR (rs8066502 allele T, DOM model, Imputed, atorvastatin vs pravastatin): 0.5122
- OR (rs8068714 allele T, DOM model, Imputed, atorvastatin vs pravastatin): 0.5127
- OR (rs9301653 allele T, ADD model, Imputed, atorvastatin vs pravastatin): 1.725
- OR (rs9301653 allele T, DOM model, Imputed, atorvastatin vs pravastatin): 1.754
- OR (rs9309988 allele G, DOM model, Imputed, atorvastatin vs pravastatin): 0.8286
- OR (rs9309989 allele C, DOM model, Genotyped, atorvastatin vs pravastatin): 0.771
- OR (rs9310221 allele A, DOM model, Imputed, atorvastatin vs pravastatin): 0.8966
- OR (rs9327555 allele T, DOM model, Imputed, atorvastatin vs pravastatin): 0.5934
- OR (rs9454967 allele G, ADD model, Imputed, atorvastatin vs pravastatin): 0.982
- OR (rs9454967 allele G, DOM model, Imputed, atorvastatin vs pravastatin): 0.9744
- OR (rs9471295 allele T, DOM model, Imputed, atorvastatin vs pravastatin): 1.784
- OR (rs9477007 allele A, ADD model, Imputed, atorvastatin vs pravastatin): 1.012
- OR (rs9487279 allele T, DOM model, Imputed, atorvastatin vs pravastatin): 1.094
- OR (rs9555973 allele G, ADD model, Imputed, atorvastatin vs pravastatin): 1.732
- OR (rs9555973 allele G, DOM model, Imputed, atorvastatin vs pravastatin): 1.761
- OR (rs9557510 allele G, ADD model, Imputed, atorvastatin vs pravastatin): 1.342
- OR (rs9557510 allele G, DOM model, Imputed, atorvastatin vs pravastatin): 1.316
- OR (rs9560584 allele T, DOM model, Imputed, atorvastatin vs pravastatin): 1.792
- OR (rs9588770 allele T, DOM model, Imputed, atorvastatin vs pravastatin): 1.714
- OR (rs9588848 allele C, ADD model, Imputed, atorvastatin vs pravastatin): 1.725
- OR (rs9588848 allele C, DOM model, Imputed, atorvastatin vs pravastatin): 1.754
- OR (rs9812206 allele G, ADD model, Imputed, atorvastatin vs pravastatin): 1.042
- OR (rs9812206 allele G, DOM model, Imputed, atorvastatin vs pravastatin): 1.042
- OR (rs9813552 allele G, ADD model, Imputed, atorvastatin vs pravastatin): 1.042
- OR (rs9813552 allele G, DOM model, Imputed, atorvastatin vs pravastatin): 1.077
- OR (rs9815037 allele T, ADD model, Imputed, atorvastatin vs pravastatin): 1.048
- OR (rs9815037 allele T, DOM model, Imputed, atorvastatin vs pravastatin): 1.083
- OR (rs9825349 allele A, ADD model, Imputed, atorvastatin vs pravastatin): 1.048
- OR (rs9825349 allele A, DOM model, Imputed, atorvastatin vs pravastatin): 1.083
- OR (rs9834217 allele T, ADD model, Imputed, atorvastatin vs pravastatin): 1.017
- OR (rs9834217 allele T, DOM model, Imputed, atorvastatin vs pravastatin): 1.049
- OR (rs9840460 allele T, ADD model, Imputed, atorvastatin vs pravastatin): 1.017
- OR (rs9840460 allele T, DOM model, Imputed, atorvastatin vs pravastatin): 1.049
- OR (rs9840756 allele A, ADD model, Imputed, atorvastatin vs pravastatin): 0.9995
- OR (rs9840756 allele A, DOM model, Imputed, atorvastatin vs pravastatin): 1.031
- OR (rs9844801 allele C, DOM model, Imputed, atorvastatin vs pravastatin): 0.8286
